The source of these data is the supplement of paper PMC12819154, “High-throughput peptide-centric local stability assay extends protein–ligand identification to membrane proteins, tissues and bacteria” (Nature Structural & Molecular Biology, 2025).

Amino acid sequences for entries named in this document (tags omitted). A change or cut given only in a name is not applied to a line headed by its entry.
UniProt P05161, whole entry: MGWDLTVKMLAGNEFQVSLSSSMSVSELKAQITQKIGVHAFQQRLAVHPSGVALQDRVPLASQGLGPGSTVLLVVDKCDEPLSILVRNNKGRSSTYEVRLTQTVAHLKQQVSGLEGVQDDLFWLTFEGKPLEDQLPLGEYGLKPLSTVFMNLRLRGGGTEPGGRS
UniProt P09429: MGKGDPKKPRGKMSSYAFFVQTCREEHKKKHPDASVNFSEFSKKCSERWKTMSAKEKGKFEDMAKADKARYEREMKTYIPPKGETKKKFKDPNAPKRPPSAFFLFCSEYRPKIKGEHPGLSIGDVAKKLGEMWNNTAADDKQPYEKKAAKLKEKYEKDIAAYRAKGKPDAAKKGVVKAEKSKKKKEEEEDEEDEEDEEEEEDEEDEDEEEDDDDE
UniProt P02774: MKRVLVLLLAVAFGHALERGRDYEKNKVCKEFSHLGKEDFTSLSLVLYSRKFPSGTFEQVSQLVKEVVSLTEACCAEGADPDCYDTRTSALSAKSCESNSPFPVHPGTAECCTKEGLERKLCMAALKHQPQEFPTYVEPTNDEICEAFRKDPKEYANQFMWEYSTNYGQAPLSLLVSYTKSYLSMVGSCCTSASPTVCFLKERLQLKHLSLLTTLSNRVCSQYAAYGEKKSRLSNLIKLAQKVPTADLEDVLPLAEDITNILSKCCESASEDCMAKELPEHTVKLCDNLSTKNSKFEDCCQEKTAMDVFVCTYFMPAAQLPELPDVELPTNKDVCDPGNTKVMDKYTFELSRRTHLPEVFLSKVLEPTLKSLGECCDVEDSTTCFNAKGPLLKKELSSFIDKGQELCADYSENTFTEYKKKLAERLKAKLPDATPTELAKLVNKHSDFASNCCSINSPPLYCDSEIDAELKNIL
UniProt P02100: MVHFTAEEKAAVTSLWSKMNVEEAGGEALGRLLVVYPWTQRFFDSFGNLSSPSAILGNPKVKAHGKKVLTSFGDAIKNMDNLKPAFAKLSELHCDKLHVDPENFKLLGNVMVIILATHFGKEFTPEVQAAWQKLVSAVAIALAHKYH
UniProt P08134, whole entry: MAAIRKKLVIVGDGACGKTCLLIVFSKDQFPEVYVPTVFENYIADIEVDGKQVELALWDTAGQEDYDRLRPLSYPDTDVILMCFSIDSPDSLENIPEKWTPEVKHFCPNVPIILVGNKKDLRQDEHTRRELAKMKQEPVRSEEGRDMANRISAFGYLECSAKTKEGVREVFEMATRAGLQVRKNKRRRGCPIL
UniProt P10599: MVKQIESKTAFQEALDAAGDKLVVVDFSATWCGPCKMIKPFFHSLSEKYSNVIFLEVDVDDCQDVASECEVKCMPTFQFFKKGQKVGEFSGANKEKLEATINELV
UniProt P08397: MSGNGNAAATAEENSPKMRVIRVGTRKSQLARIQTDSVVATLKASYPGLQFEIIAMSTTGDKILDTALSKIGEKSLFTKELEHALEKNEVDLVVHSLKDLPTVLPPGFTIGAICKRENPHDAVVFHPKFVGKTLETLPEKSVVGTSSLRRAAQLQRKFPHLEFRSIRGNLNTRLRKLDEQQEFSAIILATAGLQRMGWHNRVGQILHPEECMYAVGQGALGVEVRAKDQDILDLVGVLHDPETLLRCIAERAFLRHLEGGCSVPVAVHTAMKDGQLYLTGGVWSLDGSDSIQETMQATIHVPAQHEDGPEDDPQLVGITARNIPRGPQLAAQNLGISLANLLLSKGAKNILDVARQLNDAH
UniProt P13798: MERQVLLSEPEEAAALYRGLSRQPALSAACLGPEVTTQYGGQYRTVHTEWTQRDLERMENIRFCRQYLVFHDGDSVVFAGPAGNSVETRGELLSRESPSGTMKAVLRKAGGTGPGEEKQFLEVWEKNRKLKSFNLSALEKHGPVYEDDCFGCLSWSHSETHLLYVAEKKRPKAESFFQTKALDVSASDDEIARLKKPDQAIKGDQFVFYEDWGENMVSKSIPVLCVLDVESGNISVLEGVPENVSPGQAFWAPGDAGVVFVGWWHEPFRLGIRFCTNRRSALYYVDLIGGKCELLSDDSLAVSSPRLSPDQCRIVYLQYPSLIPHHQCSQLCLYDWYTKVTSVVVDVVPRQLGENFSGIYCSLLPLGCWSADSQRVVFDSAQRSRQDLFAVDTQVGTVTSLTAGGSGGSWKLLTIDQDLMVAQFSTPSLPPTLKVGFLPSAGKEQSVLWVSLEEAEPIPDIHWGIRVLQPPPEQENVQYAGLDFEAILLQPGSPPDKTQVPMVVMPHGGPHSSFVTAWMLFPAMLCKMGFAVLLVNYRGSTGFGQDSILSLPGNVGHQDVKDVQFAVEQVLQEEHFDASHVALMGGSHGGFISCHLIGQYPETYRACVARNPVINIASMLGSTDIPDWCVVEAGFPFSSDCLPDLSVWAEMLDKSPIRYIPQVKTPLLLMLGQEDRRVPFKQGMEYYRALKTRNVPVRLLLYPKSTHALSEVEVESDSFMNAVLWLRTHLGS
UniProt P12829: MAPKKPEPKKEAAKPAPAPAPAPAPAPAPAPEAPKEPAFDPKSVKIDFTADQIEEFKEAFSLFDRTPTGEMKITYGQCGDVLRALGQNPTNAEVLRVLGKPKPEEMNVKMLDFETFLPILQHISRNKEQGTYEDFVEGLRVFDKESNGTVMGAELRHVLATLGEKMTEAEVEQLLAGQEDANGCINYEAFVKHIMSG
UniProt P13994: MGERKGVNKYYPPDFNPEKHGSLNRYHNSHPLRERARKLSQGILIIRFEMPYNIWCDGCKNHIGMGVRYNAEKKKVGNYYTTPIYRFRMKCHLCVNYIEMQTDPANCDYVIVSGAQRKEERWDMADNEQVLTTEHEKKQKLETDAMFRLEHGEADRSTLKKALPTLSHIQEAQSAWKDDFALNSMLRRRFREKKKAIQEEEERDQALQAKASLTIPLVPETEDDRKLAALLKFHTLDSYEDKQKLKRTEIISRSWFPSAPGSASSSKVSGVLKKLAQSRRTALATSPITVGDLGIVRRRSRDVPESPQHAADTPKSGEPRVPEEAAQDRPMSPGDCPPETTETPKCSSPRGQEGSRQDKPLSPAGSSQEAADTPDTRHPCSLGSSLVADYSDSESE
UniProt P0CW19: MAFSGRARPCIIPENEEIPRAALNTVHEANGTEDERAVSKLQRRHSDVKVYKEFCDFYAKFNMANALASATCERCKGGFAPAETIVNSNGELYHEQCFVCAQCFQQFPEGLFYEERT
UniProt P04920: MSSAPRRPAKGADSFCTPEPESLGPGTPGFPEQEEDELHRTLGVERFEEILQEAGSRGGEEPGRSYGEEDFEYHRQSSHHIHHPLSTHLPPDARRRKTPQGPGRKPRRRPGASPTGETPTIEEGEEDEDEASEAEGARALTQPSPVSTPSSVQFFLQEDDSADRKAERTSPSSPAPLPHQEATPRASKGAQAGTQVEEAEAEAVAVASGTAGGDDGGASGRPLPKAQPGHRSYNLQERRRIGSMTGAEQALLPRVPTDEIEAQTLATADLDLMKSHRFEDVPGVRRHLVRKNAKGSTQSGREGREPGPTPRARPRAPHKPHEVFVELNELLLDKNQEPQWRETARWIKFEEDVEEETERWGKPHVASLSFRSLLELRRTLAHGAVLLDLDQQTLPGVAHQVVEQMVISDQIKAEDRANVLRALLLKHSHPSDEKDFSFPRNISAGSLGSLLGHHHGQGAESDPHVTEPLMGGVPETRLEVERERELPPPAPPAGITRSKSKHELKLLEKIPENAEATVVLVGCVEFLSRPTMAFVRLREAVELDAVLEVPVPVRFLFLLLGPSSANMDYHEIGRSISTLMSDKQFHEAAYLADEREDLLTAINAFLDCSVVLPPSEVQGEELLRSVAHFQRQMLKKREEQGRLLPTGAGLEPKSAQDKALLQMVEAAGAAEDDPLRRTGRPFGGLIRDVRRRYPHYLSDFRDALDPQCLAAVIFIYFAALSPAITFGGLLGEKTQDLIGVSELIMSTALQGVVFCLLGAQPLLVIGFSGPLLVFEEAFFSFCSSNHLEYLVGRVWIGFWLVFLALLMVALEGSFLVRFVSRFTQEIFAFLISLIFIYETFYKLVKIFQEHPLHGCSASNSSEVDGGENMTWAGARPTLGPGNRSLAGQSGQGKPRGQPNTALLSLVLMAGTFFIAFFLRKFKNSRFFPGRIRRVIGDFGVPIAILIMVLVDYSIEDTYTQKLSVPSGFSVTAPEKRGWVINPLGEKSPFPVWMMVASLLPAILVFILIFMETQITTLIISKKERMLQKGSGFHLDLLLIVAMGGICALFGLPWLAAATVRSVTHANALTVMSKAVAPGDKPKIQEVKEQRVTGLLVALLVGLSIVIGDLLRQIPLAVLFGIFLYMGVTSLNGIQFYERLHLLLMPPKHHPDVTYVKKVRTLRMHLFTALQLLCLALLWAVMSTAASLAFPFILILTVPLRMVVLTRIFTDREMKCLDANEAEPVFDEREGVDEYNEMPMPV
UniProt P08913, whole entry: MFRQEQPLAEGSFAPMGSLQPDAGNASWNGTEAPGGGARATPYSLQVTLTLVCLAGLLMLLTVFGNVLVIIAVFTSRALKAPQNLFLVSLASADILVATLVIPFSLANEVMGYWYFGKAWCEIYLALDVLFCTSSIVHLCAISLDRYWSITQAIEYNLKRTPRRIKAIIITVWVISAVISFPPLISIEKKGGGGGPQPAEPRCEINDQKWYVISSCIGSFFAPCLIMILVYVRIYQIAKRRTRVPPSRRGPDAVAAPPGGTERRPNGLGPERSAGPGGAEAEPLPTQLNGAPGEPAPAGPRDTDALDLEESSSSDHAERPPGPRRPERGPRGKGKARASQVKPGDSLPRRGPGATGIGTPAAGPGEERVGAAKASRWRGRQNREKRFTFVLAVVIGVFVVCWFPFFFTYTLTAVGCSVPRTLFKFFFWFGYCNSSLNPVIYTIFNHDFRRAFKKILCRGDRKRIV
UniProt P06280: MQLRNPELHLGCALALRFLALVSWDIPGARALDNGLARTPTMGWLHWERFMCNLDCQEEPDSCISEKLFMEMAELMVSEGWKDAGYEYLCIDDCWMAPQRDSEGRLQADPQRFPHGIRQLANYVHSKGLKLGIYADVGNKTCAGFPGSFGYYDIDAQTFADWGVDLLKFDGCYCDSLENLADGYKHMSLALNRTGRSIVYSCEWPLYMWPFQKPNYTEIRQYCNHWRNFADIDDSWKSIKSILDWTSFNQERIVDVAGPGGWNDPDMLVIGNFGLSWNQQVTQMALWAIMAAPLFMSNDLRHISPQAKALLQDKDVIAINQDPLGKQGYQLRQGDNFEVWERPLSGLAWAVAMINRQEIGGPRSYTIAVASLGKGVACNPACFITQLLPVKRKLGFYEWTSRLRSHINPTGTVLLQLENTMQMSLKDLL
UniProt P07948: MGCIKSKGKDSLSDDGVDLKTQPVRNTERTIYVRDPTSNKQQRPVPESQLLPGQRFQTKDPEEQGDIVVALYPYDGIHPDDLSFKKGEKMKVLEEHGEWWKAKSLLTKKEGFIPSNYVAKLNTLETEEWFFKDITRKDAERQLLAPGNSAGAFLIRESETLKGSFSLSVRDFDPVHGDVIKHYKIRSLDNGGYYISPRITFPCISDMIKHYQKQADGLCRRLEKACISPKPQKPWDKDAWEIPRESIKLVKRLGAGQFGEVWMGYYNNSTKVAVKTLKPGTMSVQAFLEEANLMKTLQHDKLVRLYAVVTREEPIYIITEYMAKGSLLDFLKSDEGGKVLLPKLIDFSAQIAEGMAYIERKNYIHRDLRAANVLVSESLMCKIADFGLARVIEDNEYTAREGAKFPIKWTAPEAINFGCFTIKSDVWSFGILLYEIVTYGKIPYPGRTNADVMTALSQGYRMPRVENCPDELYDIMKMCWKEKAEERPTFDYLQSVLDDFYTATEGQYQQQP
UniProt P04181: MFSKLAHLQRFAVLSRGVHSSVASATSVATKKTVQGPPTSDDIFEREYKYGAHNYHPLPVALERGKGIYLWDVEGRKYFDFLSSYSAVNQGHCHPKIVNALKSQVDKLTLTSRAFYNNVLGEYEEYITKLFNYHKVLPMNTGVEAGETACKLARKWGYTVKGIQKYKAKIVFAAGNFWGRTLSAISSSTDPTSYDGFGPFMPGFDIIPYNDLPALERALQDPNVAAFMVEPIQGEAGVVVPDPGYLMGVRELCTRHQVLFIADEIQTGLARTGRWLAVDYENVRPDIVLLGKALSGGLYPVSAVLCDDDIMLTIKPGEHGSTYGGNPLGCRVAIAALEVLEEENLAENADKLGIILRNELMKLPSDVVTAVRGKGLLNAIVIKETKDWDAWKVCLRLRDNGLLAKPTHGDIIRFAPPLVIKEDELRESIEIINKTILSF
UniProt P11177, whole entry: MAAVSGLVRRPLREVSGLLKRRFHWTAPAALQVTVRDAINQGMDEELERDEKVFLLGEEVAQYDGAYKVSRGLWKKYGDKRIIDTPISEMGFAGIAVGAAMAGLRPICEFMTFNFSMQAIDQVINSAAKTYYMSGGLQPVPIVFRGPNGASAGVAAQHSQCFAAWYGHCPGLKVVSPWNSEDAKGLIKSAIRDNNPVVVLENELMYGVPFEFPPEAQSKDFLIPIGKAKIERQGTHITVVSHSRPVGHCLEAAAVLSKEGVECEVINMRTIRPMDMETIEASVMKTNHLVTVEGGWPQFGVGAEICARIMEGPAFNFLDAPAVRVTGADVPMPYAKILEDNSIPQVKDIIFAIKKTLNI

Some of the results follow. Most values lie at the level of the controls, where differences are scatter.

Compound in this experiment: Cc1nc(Nc2ncc(C(=O)Nc3c(C)cccc3Cl)s2)cc(N2CCN(CCO)CC2)n1 [dasatinib]
The experiment in a line: log2 fold change of tryptic peptide abundance, ligand vs vehicle (limited proteolysis) (log2 ratio); higher = more trypsin-susceptible (destabilized). Conditions: ligand concentration: 5 uM; sample: K562 cleared lysate.
With “CTSB (peptide sequence: HYGYNSYSVSNSEKDIMAEIYK, peptide start residue: 224) (UniProt P07858)”, the log2 fold change is -0.838.

With “ISG15 (peptide sequence: IGVHAFQQR, peptide start residue: 36) (UniProt P05161)”, the log2 fold change is -0.271.

For the target “TPM3 (peptide sequence: CSELEEELK, peptide start residue: 191) (UniProt P06753)”, the log2 fold change turned out to be 0.53. Regarding “UniProt P0C0S8 (peptide sequence: AGLQFPVGRVHR, peptide start residue: 22)”, the log2 fold change stood at 0.102. The result for “G6PD (peptide sequence: TQVCGILR, peptide start residue: 10) (UniProt P11413)” reads 0.0546; that for “HMGB1 (peptide sequence: PPSAFFLFCSEYRPK, peptide start residue: 98) (UniProt P09429)”, -0.272; that for “BCR (peptide sequence: EFYDGLFPR, peptide start residue: 559) (UniProt P11274)”, -0.394. In the case of “GC (peptide sequence: RTHLPEVFLSK, peptide start residue: 353) (UniProt P02774)”, the log2 fold change is 0.045. For “HBE1 (peptide sequence: MVHFTAEEK, peptide start residue: 1) (UniProt P02100)”, the log2 fold change stood at 0.255.

In the case of “UniProt P08134 (peptide sequence: MKQEPVRSEEGR, peptide start residue: 134)”, the log2 fold change worked out at 0.185. Consider “TXN (peptide sequence: VGEFSGANKEK, peptide start residue: 86) (UniProt P10599)”, for which the log2 fold change is -0.0893. The result for “GALT (peptide sequence: DRETATIA, peptide start residue: 372) (UniProt P07902)” reads 0.253. The result for “HMBS (peptide sequence: FPHLEFR, peptide start residue: 158) (UniProt P08397)” reads -0.142. The result for “MTHFD1 (peptide sequence: KVVGDVAYDEAK, peptide start residue: 251) (UniProt P11586)” reads 0.154. On to “APEH (peptide sequence: VVFDSAQR, peptide start residue: 376) (UniProt P13798)”, for which the log2 fold change amounted to 0.277. Turning to “MYL4 (peptide sequence: ESNGTVMGAELR, peptide start residue: 145) (UniProt P12829)”, the log2 fold change is 0.117. In the case of “LGALS1 (peptide sequence: LPDGYEFK, peptide start residue: 101) (UniProt P09382)”, the log2 fold change turned out to be 0.156. With “CCDC130 (peptide sequence: YYPPDFNPEK, peptide start residue: 10) (UniProt P13994)”, the log2 fold change worked out at 0.154. On to “UniProt P0CW19 (peptide sequence: AALNTVHEANGTEDER, peptide start residue: 21)”, for which the log2 fold change is -0.275. Regarding “RPLP0 (peptide sequence: GHLENNPALEK, peptide start residue: 67) (UniProt P05388)”, the log2 fold change is -0.128. Turning to “SLC4A2 (peptide sequence: SYGEEDFEYHR, peptide start residue: 65) (UniProt P04920)”, the log2 fold change came out at 0.266. For the target “CT45A10 (peptide sequence: SQQEINADIKCQVVK, peptide start residue: 118) (UniProt P0DMU9)”, the log2 fold change was determined as 0.0889. Regarding “UniProt P08913 (peptide sequence: GKARASQVK, peptide start residue: 334)”, the log2 fold change was -0.0754. For “EEF2 (peptide sequence: ARPFPDGLAEDIDKGEVSAR, peptide start residue: 606) (UniProt P13639)”, the log2 fold change is -0.199. Regarding “GLA (peptide sequence: TPTMGWLHWER, peptide start residue: 39) (UniProt P06280)”, the log2 fold change is 0.208. For the target “LYN (peptide sequence: EGFIPSNYVAK, peptide start residue: 110) (UniProt P07948)”, the log2 fold change was 0.48. Turning to “OAT (peptide sequence: SQVDKLTLTSR, peptide start residue: 103) (UniProt P04181)”, the log2 fold change was found to be 0.625.

For the target “PDIA4 (peptide sequence: TFDSIVMDPK, peptide start residue: 534) (UniProt P13667)”, the log2 fold change was determined as 0.152.

“PDHB (peptide sequence: VTGADVPMPYAK, peptide start residue: 325) (UniProt P11177)”: the log2 fold change was 0.154.
